These are yes or no findings as the source states them, for the method shown. A result given as binding can be weak or reduced; the word gives no strength.
B1: Smurf1 (199–383), two-hybrid prey (domain or fragment, UniProt Q9CUN6 199-383)
chain: ESPSQDQRLLVQRLRNPEVRGPLQTPQNRPHGHQSPELPEGYEQRTTVQGQVYFLHTQTGVSTWHDPRIPRDLNSVNCDELGPLPPGWEVRSTVSGRIYFVDHNNRTTQFTDPRLHHIMNHQCQLKEPSQPLQLPSEGSVEDEELPAQRYERDLVQKLKVLRHELSLQQPQAGHCRIEVSREEIF
B2: Spop (33–237), two-hybrid prey (domain or fragment, UniProt Q6ZWS8 33-237)
chain: SYMWTINNFSFCREEMGEVIKSSTFSSGANDKLKWCLRVNPKGLDEESKDYLSLYLLLVSCPKSEVRAKFKFSILNAKGEETKAMESQRAYRFVQGKDWGFKKFIRRDFLLDEANGLLPDDKLTLFCEVSVVQDSVNISGQNTMNMVKVPECRLADELGGLWENSRFTDCCLCVAGQEFQAHKAILAARSPVFSAMFEHEMEESK
B3: Zmym2 (366–696), two-hybrid prey (domain or fragment, UniProt Q9CU65 366-696)
chain: PAPKKLCVMCKKDITTMKGTIVAQVDSSESFQEFCSTSCLSLYEDKQSPAKGALNKSRCTICGKLTEIRHEVSFKNMTHKLCSDHCFNRYRMANGLIMNCCEQCGEYLPSKGAGNNVLVVDGQQKRFCCQSCVTEYKQVGSHPSFLKEVRDHMQDSFLMQPEKYGKLTTCTGCRTQCRFFDMTQCIGPNGYMEPYCSTACMNSHKTKYAKSQSLGIICHFCKRNSLPQYQATMPDGKLYNFCNSSCVAKFQALSMQSSPNGQFVAPSDIQLKCNYCKNSFCSKPEILEWENKVHQFCSKTCSDDYKKLHCIVTYCEYCQEEKTLHETVNFS
B4: Hipk3 (156–541), two-hybrid prey (domain or fragment, UniProt Q9ERH7 156-541)
chain: TNMGNPVTVVTATTGSKQNCTSGEGDYQLVQHEVLCSMKNTYEVLDFLGRGTFGQVVKCWKRGTNEIVAIKILKNHPSYARQGQIEVSILARLSTENADEYNFVRAYECFQHRNHTCLVFEMLEQNLYDFLKQNKFSPLPLKVIRPVLQQVATALKKLKSLGLIHADLKPENIMLVDPVRQPYRVKVIDFGSASHVSKTVCSTYLQSRYYRAPEIILGLPFCEAIDMWSLGCVIAELFLGWPLYPGALEYDQIRYISQTQGLPGEQLLNVGTKSTRFFCRETDMSHSGWRLKTLEEHEAETGMKSKEARKYIFNSLDDIVHVNTVMDLEGGDLLAEKADRREFVNLLKKMLLIDADLRITPIETLNHPFVNMKHLLDFPHSNHVKS
B5: Isl1 (106–347), two-hybrid prey (domain or fragment, UniProt P61372 106-347)
chain: RCVACSRQLIPGDEFALREDGLFCRADHDVVERASLGAGDPLSPLHPARPLQMAAEPISARQPALRPHVHKQPEKTTRVRTVLNEKQLHTLRTCYAANPRPDALMKEQLVEMTGLSPRVIRVWFQNKRCKDKKRSIMMKQLQQQQPNDKTNIQGMTGTPMVAASPERHDGGLQANPVEVQSYQPPWKVLSDFALQSDIDQPAFQQLVNFSEGGPGSNSTGSEVASMSSQLPDTPNSMVASPI
B6: Kdm4c (721–800), two-hybrid prey (domain or fragment, UniProt Q8VCD7 721-800)
chain: VRVHASCYGVPSHEVCDGWLCARCKRNAWTAECCLCNLRGGALKQTKNNQWAHVICAVAVPEVRFTNVPERTQIDVDRIP

Biological target: Glis3(2–500)-LexA fusion protein (mouse) (UniProt F6SGN4)
Test: two-hybrid; Hybrigenics screen; Glis3 N-terminus-LexA bait (pB27) against a murine pancreatic beta cell (βTC-TET) library in p6; medium without His, Leu, Trp, with 5.0 mM 3-aminotriazole

| Binder | binding |
| --- | --- |
| B1 | binds |
| B2 | binds |
| B3 | binds |
| B4 | binds |
| B5 | binds |
| B6 | binds |

Reference: publication PMC4493090
